# Tested on: HEK293 cells (parental or overexpressing full-length PKCγ-EGFP)
# Assay: Cellular fluorescence of probe 33 with and without verapamil by flow cytometry (efflux)
# Type: cell-based
# Conditions: for enhancement of cellular blue fluorescence by verapamil: HEK293 overexpressing PKCγ-EGFP; for enhancement of intracellular fluorescence by verapamil: parental HEK293, 33 at 1 μM, 1 h
smiles,measurement,setting,value
"CC1=C[C@H]2[C@@]3(O)[C@H](C)[C@@H](O)[C@]4(OC(=O)N(C)CCCCCCCCCCCCN(C)C(=O)c5cc6cc(F)c(O)c(F)c6oc5=O)[C@H]([C@@H]3C=C(CO)C[C@]2(O)C1=O)C4(C)C [probe 33, (1aR,1bS,4aR,7aS,7bS,8R,9R,9aS)-4a,7b,9-trihydroxy-3-(hydroxymethyl)-1,1,6,8-tetramethyl-5-oxo-1,1a,1b,4,4a,5,7a,7b,8,9-decahydro-9aH-cyclopropa[3,4]benzo[1,2-e]azulen-9a-yl (12-(6,8-difluoro-7-hydroxy-N-methyl-2-oxo-2H-chromene-3-carboxamido)dodecyl)(methyl)carbamate]",enhancement of cellular blue fluorescence by verapamil,verapamil 25 μM,2.0 fold
same,enhancement of cellular blue fluorescence by verapamil,verapamil 100 μM,3.3 fold
same,enhancement of intracellular fluorescence by verapamil,verapamil 25 μM,2.8 fold
same,enhancement of intracellular fluorescence by verapamil,verapamil 100 μM,3.5 fold
same,blue fluorescence of cells over-expressing PKCγ-EGFP vs cells with no expression,verapamil 100 μM,2.7 fold

# Reference: US20230146870A1, “METHOD TO QUANTIFY AFFINITY AND SELECTIVITY OF SMALL MOLECULES FOR PROTEINS IN LIVING CELLS” (Ohio State Innovation Foundation, priority 2021, published 2023)
